Experimental data published in patent US20030022837A1 (Stanford University, published 2003).
Results are given in words; binding and its absence hold for the method and conditions named. For part of these data: In cells and extracts the contact can be indirect. Some entries that bind do so weakly or less than the wild type. For part of these data: Where a sequence is shown, tags or fusion partners need not be part of it.

Sequences of proteins named here, by UniProt entry; tags and fusion partners are left off.
UniProt Q12834: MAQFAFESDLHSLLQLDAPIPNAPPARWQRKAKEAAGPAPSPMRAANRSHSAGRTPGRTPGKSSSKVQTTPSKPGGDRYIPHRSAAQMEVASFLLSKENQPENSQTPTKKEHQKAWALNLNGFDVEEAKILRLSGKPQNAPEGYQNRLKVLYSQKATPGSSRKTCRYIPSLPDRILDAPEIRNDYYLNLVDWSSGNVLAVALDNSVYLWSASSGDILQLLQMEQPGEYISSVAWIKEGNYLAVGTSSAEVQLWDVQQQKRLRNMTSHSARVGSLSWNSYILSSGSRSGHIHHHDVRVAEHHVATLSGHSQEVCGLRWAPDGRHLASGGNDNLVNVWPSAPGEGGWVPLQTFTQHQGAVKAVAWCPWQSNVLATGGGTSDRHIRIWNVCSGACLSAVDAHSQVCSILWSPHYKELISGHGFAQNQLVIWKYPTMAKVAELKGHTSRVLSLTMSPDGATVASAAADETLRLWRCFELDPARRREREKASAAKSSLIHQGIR
UniProt P13350: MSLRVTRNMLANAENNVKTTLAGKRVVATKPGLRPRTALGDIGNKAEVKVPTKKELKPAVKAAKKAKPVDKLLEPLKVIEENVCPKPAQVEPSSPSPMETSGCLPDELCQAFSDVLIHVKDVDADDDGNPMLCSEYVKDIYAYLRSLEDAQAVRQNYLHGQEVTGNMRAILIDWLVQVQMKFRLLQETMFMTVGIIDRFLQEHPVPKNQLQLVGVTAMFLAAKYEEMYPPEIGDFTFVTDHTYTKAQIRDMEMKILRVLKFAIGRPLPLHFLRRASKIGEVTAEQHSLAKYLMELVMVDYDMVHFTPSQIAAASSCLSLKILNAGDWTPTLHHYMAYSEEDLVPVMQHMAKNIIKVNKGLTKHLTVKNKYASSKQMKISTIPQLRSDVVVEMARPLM

What was measured:
[1] = target: His-Cdc20 (baculovirus-expressed human Cdc20) (human) (UniProt Q12834); experiment: purified MBP-Emi1 and His-Cdc20 (100 nM each), amylose bead pull-down
[2] = target: His-Cdc20 (baculovirus-expressed human Cdc20) (human) (UniProt Q12834); experiment: purified MBP-Emi1 variants and baculovirus-expressed Cdc20, amylose bead pull-down
[3] = target: His-Cdc20 (baculovirus-expressed human Cdc20) (human) (UniProt Q12834); experiment: purified MBP-Emi1-CT and His-Cdc20, amylose bead pull-down
[4] = target: human Cdc20 (IVT hCdc20; endogenous Cdc20 of HeLa lysate) (human) (UniProt Q12834); experiment: co-immunoprecipitation from HeLa lysate with anti-hEmi1 antibody
[5] = target: Xenopus cyclin B1 (Xenopus) (UniProt P13350); experiment: yeast two-hybrid screen
[6] = target: T1, Xenopus cyclin B2 (Xenopus) (UniProt P13351); experiment: yeast two-hybrid screen
T1 sequence (looked up): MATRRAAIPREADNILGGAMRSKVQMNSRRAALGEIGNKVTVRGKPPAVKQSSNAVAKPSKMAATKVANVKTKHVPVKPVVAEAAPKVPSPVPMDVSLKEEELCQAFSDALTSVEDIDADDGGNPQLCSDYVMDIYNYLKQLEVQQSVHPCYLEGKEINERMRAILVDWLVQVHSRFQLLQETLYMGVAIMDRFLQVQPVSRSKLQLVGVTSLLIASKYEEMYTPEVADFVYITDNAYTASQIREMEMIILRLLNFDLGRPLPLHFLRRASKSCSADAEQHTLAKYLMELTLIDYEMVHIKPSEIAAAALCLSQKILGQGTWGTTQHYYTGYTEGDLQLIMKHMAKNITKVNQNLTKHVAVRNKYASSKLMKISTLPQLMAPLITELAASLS

B1: Xenopus Emi1 (Early Mitotic Inhibitor 1), full-length wild type (other)
chain: MMCGFASNQSPKKLSSKKSSATNVHLEISPVKHHPPCKVYENVQGSCLDSAICTTVAKCADLTDDLPVHNKENLLHRLNDLETNSYEEYSALQDSGYSSILQNDSPCQDETDRKVSDIQVRETPKNFMSYQRPFHTLSKINLPILRFEEAVCSTLKKMRKTNKKIDWNAVDVVCGGNYGLEHLIGKSMGLERFDILAELFHRDFKHLLTKILRHLSAMDLINVISVSTTWRKLLQKDNWAYNAYKLGCKELCEKRAKVSSHTATRDESLCRVPLASVQKVAASSLCTSKKQSKNKNGGLSCNRLAEFIEVAQTLKNDQSLKVCVDCGSPAKHDPCLHRAICTRESCKLDFCTRCSCKYHFSKSCLMSKPGSYRIPSEPLPGSKKSKQNLRRL
notes: 392 residues; also called xEmi1; Emi1p
- binding [1]: binds

B2: MBP-Emi1-NT (protein, not shown: large carriers)
chain: MMCGFASNQSPKKLSSKKSSATNVHLEISPVKHHPPCKVYENVQGSCLDSAICTTVAKCADLTDDLPVHNKENLLHRLNDLETNSYEEYSALQDSGYSSILQNDSPCQDETDRKVSDIQVRETPKNFMSYQRPFHTLSKINLPILRFEEAVCSTLKKMRKTNKKIDWNAVDVVCGGNYGLEHLIGKSMGLERF
- binding [2]: binds

B3: MBP-Emi1-CT (protein, not shown: large carriers)
chain: CKELCEKRAKVSSHTATRDESLCRVPLASVQKVAASSLCTSKKQSKNKNGGLSCNRLAEFIEVAQTLKNDQSLKVCVDCGSPAKHDPCLHRAICTRESCKLDFCTRCSCKYHFSKSCLMSKPGSYRIPSEPLPGSKKSKQNLRRL
- binding [3]: binds

B4: human Emi1 (hEmi1), full length (protein)
chain: MSRRPCSCALRPPRCSCSASPSAVTAAGRPRPSDSCKEESSTLSVKMKCDFNCNHVHSGLKLVKPDDIGRLVSYTPAYLEGSCKDCIKDYERLSCIGSPIVSPRIVQLETESKRLHNKENQHVQQTLNSTNEIEALETSRLYEDSGYSSFSLQSGLSEHEEGSLLEENFGDSLQSCLLQIQSPDQYPNKNLLPVLHFEKVVCSTLKKNAKRNPKVDREMLKEIIARGNFRLQNIIGRKMGLECVDILSELFRRGLRHVLATILAQLSDMDLINVSKVSTTWKKILEDDKGAFQLYSKAIQRVTENNNKFSPHASTREYVMFRTPLASVQKSAAQTSLKKDAQTKLSNQGDQKGSTYSRHNEFSEVAKTLKKNESLKACIRCNSPAKYDCYLQRATCKREGCGFDYCTKCLCNYHTTKDCSDGKLLKASCKIGPLPGTKKSKKNLRRL
- binding [4]: binds

B5: Emi1-NT (Xenopus Emi1 N-terminus, amino acids 1-193), two-hybrid bait (protein)
chain: MMCGFASNQSPKKLSSKKSSATNVHLEISPVKHHPPCKVYENVQGSCLDSAICTTVAKCADLTDDLPVHNKENLLHRLNDLETNSYEEYSALQDSGYSSILQNDSPCQDETDRKVSDIQVRETPKNFMSYQRPFHTLSKINLPILRFEEAVCSTLKKMRKTNKKIDWNAVDVVCGGNYGLEHLIGKSMGLERF
- binding [5]: binds
- binding [6]: binds
